{
  "source": "patent US20210253718A1",
  "about": "“FRIZZLED5 PROTEIN-BINDING AGENTS” (Modmab Therapeutics Corporation, priority 2016, published 2021)",
  "note": "These are yes or no findings as the source states them, for the method shown. Some binding calls cover weakened binding; strength is not graded here. Sequences can lack the tags named with a protein.",
  "data": [
    {"molecular_target": "T1, FZD8-Fc (UniProt Q9H461)", "T1 sequence (looked up)": "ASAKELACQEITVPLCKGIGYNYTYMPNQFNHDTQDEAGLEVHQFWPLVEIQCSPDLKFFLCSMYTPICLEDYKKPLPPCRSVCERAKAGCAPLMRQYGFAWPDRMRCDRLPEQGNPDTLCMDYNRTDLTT", "experiment": "SPR", "values": [
      {"binder": "IgG-2910 (antibody, V domains shown) VH: EVQLVESGGGLVQPGGSLRLSCAASGFNISYSYMHWVRQAPGKGLEWVASIYSSSSSTSYADSVKGRFTISADTSKNTAYLQMNSLRAEDTAVYYCARGAMDYWGQGTLVTVSS VL: DIQMTQSPSSLSASVGDRVTITCRASQSVSSAVAWYQQKPGKAPKLLIYSASSLYSGVPSRFSGSRSGTDFTLTISSLQPEDFATYYCQQWYGSHLITFGQGTKVEIK", "binding": "binds"},
      {"binder": "IgG-2919 (antibody, V domains shown) VH: EVQLVESGGGLVQPGGSLRLSCAASGFNISYSYIHWVRQAPGKGLEWVASIYSSSGSTSYADSVKGRFTISADTSKNTAYLQMNSLRAEDTAVYYCARGAIDYWGQGTLVTVSS VL: DIQMTQSPSSLSASVGDRVTITCRASQSVSSAVAWYQQKPGKAPKLLIYSASSLYSGVPSRFSGSRSGTDFTLTISSLQPEDFATYYCQQWYSSGHVLITFGQGTKVEIKR", "binding": "binds"},
      {"binder": "IgG-2920 (antibody, V domains shown) VH: EVQLVESGGGLVQPGGSLRLSCAASGFNISYYYIHWVRQAPGKGLEWVASIYPSSGSTSYADSVKGRFTISADTSKNTAYLQMNSLRAEDTAVYYCARGGMDYWGQGTLVTVSS VL: DIQMTQSPSSLSASVGDRVTITCRASQSVSSAVAWYQQKPGKAPKLLIYSASSLYSGVPSRFSGSRSGTDFTLTISSLQPEDFATYYCQQWFAGALITFGQGTKVEIK", "binding": "binds"},
      {"binder": "IgG-2921 (antibody, V domains shown) VH: EVQLVESGGGLVQPGGSLRLSCAASGFNISYYYIHWVRQAPGKGLEWVASIYPSSGSTSYADSVKGRFTISADTSKNTAYLQMNSLRAEDTAVYYCARGAMDYWGQGTLVTVSS VL: DIQMTQSPSSLSASVGDRVTITCRASQSVSSAVAWYQQKPGKAPKLLIYSASSLYSGVPSRFSGSRSGTDFTLTISSLQPEDFATYYCQQWYAGSLITFGQGTKVEIK", "binding": "binds"},
      {"binder": "IgG-2929 (antibody, V domains shown) VH: EVQLVESGGGLVQPGGSLRLSCAASGFNISYYYIHWVRQAPGKGLEWVASIYPSSSSTSYADSVKGRFTISADTSKNTAYLQMNSLRAEDTAVYYCARGAMDYWGQGTLVTVSS VL: DIQMTQSPSSLSASVGDRVTITCRASQSVSSAVAWYQQKPGKAPKLLIYSASSLYSGVPSRFSGSRSGTDFTLTISSLQPEDFATYYCQQWYSSYGLITFGQGTKVEIK", "binding": "binds"}
    ]},
    {"molecular_target": "T1, FZD8-Fc", "experiment": "SPR, Frizzled-Fc chimera", "values": [
      {"binder": "IgG-2929 (antibody, V domains shown) VH: EVQLVESGGGLVQPGGSLRLSCAASGFNISYYYIHWVRQAPGKGLEWVASIYPSSSSTSYADSVKGRFTISADTSKNTAYLQMNSLRAEDTAVYYCARGAMDYWGQGTLVTVSS VL: DIQMTQSPSSLSASVGDRVTITCRASQSVSSAVAWYQQKPGKAPKLLIYSASSLYSGVPSRFSGSRSGTDFTLTISSLQPEDFATYYCQQWYSSYGLITFGQGTKVEIK", "binding": "binds"}
    ]}
  ]
}
